# No constants are given. Whether binding was seen depends on the method and setting. Binding seen in cells or lysates may run through a third protein. Some binding calls cover weakened binding; strength is not graded here.
# Protein sequences, listed by entry. Tags and fused reporters are not part of them.
# UniProt P04608: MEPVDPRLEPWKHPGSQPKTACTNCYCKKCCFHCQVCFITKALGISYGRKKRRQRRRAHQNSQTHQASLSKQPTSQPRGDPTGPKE
# UniProt Q9H4L4: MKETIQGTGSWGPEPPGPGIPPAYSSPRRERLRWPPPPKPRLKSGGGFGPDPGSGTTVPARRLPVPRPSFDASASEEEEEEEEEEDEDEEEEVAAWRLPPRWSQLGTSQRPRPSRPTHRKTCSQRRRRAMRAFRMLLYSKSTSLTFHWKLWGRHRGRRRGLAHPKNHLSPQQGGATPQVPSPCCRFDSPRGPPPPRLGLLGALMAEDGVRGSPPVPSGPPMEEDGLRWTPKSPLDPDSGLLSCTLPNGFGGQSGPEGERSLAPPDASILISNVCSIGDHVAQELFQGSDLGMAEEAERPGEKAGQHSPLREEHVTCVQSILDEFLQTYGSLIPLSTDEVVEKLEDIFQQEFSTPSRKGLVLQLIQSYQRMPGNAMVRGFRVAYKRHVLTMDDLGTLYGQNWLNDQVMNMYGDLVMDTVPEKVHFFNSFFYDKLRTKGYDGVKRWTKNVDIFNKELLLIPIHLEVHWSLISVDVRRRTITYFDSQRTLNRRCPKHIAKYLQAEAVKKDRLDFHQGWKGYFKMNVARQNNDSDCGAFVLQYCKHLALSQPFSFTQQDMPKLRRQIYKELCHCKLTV
# Biological target: HIV-1 Tat (HIV-1) (UniProt P04608)
# Assay: co-IP; co-immunoprecipitation in the presence and absence of SUMO protease inhibitors
substance,measurement,value
SENP3 (from UniProt Q9H4L4 1-574) (enzyme),binding,binds

# Reference: PMC5046194
